{"source": "PubChem BioAssay AID2685", "about": "(National Center for Advancing Translational Sciences (NCATS), 2010)", "assay": "qHTS Assay for Lipid Storage Modulators in Drosophila S3 Cells;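 on cell number change: cells counted by Cell Tracker Red CMTPX staining in the red channel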", "details": "BODIPY lipid droplet fluorescence, 18-24 h; for cell number change: measured here: cell count max response, cells fed with added oleic acid", "outline": "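Drosophila S3 cells got compounds at several concentrations plus oleic acid (400 uM solution). Laser-scanning cytometry with 488 nm excitation read lipid droplets at 500-530 nm and cells at 575-640 nm. Percent activity was relative to 20 uM Triacsin C.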", "key": {"[1]": {"details": "measured here: lipid fluorescence (Fed channel) AC50, cells fed with added oleic acid"}, "[2]": {"details": "measured here: cell number channel AC50, cells fed with added oleic acid"}}, "note": "The other results are listed elsewhere or left out. Shown are side measurements of this screen, not its main read-out; they come without a call. The list favours compounds with an active or inconclusive main result. Potencies come from curve fits of mixed quality, noted in brackets."}
{"smiles": "CCC(=NCCCN(CC)CC)c1c(O)n(C2CCCCC2)c(=O)[nH]c1=O", "values": [{"measurement": "cell number change", "result": -0.0458, "unit": "%"}, {"measurement": "AC50", "setting": "[1]", "result": "29.1 µM [falling, single point]"}]}
{"smiles": "Nc1ccccc1C(=O)OCCOc1ccccc1", "values": [{"measurement": "cell number change", "result": -18.7, "unit": "%"}, {"measurement": "AC50", "setting": "[1]", "result": "29.1 µM [rising, single point]"}]}
{"smiles": "COC(=O)C1=C(c2ccc(Cl)c(C(F)(F)F)c2)C[C@@H]2CC[C@H]1N2C(=O)N1CCCC1", "values": [{"measurement": "cell number change", "result": -18.2, "unit": "%"}, {"measurement": "AC50", "setting": "[1]", "result": "25.9 µM [falling, single point]"}]}
{"smiles": "CC(NCC#Cc1ccccc1)C(O)c1ccccc1", "note": "(stereo unspecified)", "values": [{"measurement": "cell number change", "result": -6.89, "unit": "%"}, {"measurement": "AC50", "setting": "[2]", "result": "0.461 µM [falling, full curve, poor fit]"}]}
{"smiles": "Clc1ccc(C(Cn2ccnc2)OCc2csc3c(Cl)cccc23)c(Cl)c1", "note": "(stereo unspecified)", "values": [{"measurement": "cell number change", "result": -76.9, "unit": "%"}]}
{"smiles": "Cc1ccc(/C=C2/Sc3ccc(C(=O)N4CCC5(CC4)OCCO5)cc3NC2=O)cc1", "values": [{"measurement": "cell number change", "result": -49.1, "unit": "%"}, {"measurement": "AC50", "setting": "[2]", "result": "13 µM [falling, partial curve]"}]}
{"smiles": "Fc1ccc(CNCCc2ccc3c(c2)OCO3)cc1", "values": [{"measurement": "cell number change", "result": 12.7, "unit": "%"}, {"measurement": "AC50", "setting": "[1]", "result": "18.4 µM [rising, single point]"}]}
{"smiles": "CCP(=S)(CC)c1ccc(N(C)C)cc1", "values": [{"measurement": "cell number change", "result": 19.8, "unit": "%"}, {"measurement": "AC50", "setting": "[1]", "result": "6.51 µM [rising, partial curve, poor fit]"}]}
{"smiles": "Cc1cccc(C#N)c1", "values": [{"measurement": "cell number change", "result": 5.65, "unit": "%"}, {"measurement": "AC50", "setting": "[1]", "result": "0.0231 µM [rising, full curve, poor fit]"}]}
{"smiles": "O=C1NC(=O)N(CCc2ccc(F)cc2)C(=O)/C1=C/C=C/c1ccccc1", "values": [{"measurement": "cell number change", "result": -4.48, "unit": "%"}, {"measurement": "AC50", "setting": "[2]", "result": "3.26 µM [falling, single point]"}, {"measurement": "AC50", "setting": "[1]", "result": "6.51 µM [falling, single point]"}]}
{"smiles": "CCOc1ccc(-c2c(C)n(-c3ccc(OCC)cc3)c3[n+]2CCCCC3)cc1", "values": [{"measurement": "cell number change", "result": -69.5, "unit": "%"}, {"measurement": "AC50", "setting": "[2]", "result": "5.17 µM [falling, partial curve]"}]}
{"smiles": "CC1CCCCN1C(=O)Cn1cc(C=C2C(=O)N(C)C(=O)N(C)C2=O)c2ccccc21", "note": "(stereo unspecified)", "values": [{"measurement": "cell number change", "result": 3.41, "unit": "%"}, {"measurement": "AC50", "setting": "[1]", "result": "29.1 µM [falling, single point]"}]}
{"smiles": "CCC(=NCCC(c1ccccc1)c1ccccc1)c1c(O)[nH]c(=O)[nH]c1=O", "values": [{"measurement": "cell number change", "result": -50, "unit": "%"}, {"measurement": "AC50", "setting": "[2]", "result": "29.1 µM [falling, single point]"}, {"measurement": "AC50", "setting": "[1]", "result": "20.6 µM [rising, partial curve]"}]}
{"smiles": "O=C1NC(=O)N(c2cccc(Br)c2)C(=O)/C1=C/c1ccsc1", "values": [{"measurement": "cell number change", "result": 3.68, "unit": "%"}, {"measurement": "AC50", "setting": "[2]", "result": "6.51 µM [falling, single point]"}, {"measurement": "AC50", "setting": "[1]", "result": "4.61 µM [falling, single point]"}]}
{"smiles": "O=C(C(=O)N1CCC2(CC1)OCCO2)c1c[nH]c2ccccc12", "values": [{"measurement": "cell number change", "result": -31.8, "unit": "%"}, {"measurement": "AC50", "setting": "[2]", "result": "18.4 µM [falling, single point]"}]}
{"smiles": "O=[N+]([O-])c1ccc(NCc2ccc(Cl)cc2)c2ccncc12", "values": [{"measurement": "cell number change", "result": -0.704, "unit": "%"}]}
{"smiles": "COc1ccc(-n2cnc3cc(C(=O)N4CCC5(CC4)OCCO5)ccc32)cc1", "values": [{"measurement": "cell number change", "result": -0.121, "unit": "%"}, {"measurement": "AC50", "setting": "[2]", "result": "6.51 µM [falling, single point]"}, {"measurement": "AC50", "setting": "[1]", "result": "7.31 µM [falling, partial curve, poor fit]"}]}
